Laboratory results taken from the supplement of paper PMC10849652.
This is one part of the list.

By UniProt entry, the sequences of proteins in these tests, tags left out. Where a name states a change or a piece, a line headed by the entry shows the natural chain unless it says otherwise.
UniProt Q96PM5: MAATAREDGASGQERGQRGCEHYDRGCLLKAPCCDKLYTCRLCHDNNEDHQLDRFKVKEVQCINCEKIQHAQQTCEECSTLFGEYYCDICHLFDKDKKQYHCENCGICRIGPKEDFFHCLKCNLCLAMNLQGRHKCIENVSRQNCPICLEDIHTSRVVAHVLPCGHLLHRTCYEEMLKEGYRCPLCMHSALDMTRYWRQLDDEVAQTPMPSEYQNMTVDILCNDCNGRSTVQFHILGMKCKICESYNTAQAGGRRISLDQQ
UniProt O43566: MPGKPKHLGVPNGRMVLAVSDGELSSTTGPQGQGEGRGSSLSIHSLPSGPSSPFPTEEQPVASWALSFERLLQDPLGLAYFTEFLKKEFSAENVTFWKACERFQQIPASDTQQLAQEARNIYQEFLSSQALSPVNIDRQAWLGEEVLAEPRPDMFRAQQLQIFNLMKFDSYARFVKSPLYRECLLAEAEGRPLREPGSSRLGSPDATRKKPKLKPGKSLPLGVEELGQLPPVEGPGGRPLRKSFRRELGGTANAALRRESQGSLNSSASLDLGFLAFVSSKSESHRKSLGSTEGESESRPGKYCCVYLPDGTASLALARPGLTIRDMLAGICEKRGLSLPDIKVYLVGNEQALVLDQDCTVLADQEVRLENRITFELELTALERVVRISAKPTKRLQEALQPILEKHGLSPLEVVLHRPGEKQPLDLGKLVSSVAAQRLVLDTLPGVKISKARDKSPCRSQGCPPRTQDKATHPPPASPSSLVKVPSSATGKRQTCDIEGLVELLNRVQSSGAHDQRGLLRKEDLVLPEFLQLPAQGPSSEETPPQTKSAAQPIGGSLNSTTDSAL
UniProt Q5RL73: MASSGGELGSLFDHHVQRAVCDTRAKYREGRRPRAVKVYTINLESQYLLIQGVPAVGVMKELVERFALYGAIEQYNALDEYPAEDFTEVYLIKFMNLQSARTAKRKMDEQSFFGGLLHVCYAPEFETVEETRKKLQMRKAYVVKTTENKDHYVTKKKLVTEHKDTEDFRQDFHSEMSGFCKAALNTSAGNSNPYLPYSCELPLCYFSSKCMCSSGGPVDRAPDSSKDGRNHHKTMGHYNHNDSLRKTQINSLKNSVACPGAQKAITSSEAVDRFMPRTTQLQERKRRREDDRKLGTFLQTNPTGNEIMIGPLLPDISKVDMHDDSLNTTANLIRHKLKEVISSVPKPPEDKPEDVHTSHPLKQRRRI
UniProt P22670: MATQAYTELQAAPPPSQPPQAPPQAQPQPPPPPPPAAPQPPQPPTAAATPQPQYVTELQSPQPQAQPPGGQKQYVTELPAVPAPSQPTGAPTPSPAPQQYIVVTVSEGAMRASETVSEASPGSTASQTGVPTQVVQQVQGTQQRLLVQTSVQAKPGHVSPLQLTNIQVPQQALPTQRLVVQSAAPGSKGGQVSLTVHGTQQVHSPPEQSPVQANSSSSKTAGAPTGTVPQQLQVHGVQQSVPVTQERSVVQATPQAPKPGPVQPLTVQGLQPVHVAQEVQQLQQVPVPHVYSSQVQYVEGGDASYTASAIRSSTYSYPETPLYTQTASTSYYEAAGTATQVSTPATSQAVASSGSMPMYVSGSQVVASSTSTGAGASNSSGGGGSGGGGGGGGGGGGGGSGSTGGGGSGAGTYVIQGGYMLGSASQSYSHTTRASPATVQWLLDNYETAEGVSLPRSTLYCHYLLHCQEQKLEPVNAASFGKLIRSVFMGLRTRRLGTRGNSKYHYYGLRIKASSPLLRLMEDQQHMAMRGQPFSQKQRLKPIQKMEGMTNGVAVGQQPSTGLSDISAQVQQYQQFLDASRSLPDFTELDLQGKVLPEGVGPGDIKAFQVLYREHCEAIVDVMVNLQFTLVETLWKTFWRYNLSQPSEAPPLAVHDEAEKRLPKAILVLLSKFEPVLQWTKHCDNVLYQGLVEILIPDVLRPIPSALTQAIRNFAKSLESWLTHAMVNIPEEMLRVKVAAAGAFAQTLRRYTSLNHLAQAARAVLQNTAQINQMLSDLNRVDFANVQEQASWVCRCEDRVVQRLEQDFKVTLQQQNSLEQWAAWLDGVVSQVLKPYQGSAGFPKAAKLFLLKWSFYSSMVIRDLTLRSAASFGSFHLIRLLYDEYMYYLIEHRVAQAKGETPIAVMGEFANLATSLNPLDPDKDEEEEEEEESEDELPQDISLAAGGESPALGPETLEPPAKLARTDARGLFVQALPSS
UniProt Q5TBB1: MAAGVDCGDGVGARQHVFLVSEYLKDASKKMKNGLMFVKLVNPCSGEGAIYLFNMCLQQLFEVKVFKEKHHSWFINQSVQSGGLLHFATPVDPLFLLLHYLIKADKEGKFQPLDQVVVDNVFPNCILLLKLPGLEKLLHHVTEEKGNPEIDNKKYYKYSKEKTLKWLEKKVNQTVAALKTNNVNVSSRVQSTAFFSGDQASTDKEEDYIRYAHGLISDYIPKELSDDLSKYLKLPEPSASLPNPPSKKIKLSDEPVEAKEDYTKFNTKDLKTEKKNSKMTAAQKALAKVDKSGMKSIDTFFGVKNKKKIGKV
UniProt P62745, whole entry, looked up: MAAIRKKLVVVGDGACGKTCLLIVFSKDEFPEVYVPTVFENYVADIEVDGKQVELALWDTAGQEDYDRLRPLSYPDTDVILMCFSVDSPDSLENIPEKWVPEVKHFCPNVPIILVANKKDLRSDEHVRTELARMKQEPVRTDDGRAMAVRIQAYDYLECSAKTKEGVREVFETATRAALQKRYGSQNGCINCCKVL
UniProt P52758: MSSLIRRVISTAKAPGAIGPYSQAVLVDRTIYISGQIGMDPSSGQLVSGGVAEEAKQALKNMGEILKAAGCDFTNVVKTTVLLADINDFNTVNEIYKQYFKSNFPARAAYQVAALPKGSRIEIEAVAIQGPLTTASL
UniProt Q8IXI2: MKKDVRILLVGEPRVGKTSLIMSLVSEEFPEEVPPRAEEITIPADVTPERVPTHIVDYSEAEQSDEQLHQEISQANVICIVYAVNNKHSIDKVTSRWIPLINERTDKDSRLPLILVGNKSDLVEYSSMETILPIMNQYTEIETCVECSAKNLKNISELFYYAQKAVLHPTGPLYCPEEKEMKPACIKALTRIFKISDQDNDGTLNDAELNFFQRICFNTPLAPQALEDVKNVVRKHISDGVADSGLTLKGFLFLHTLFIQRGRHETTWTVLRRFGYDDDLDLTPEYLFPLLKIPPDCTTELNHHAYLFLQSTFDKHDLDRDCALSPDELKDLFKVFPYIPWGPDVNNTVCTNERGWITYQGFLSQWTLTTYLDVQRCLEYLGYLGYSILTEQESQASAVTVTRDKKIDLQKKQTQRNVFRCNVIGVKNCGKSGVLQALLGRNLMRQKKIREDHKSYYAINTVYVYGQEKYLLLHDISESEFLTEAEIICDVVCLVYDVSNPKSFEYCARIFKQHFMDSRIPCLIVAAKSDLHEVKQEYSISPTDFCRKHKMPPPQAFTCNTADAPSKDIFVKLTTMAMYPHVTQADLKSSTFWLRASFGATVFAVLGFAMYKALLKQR
UniProt O00287: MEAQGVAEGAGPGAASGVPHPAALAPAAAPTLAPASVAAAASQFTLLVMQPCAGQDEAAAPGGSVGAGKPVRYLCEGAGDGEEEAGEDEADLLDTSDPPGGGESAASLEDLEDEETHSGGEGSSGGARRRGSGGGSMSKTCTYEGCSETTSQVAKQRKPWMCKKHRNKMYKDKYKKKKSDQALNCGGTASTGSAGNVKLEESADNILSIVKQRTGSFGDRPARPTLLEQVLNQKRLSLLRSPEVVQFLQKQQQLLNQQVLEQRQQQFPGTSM
UniProt O15541: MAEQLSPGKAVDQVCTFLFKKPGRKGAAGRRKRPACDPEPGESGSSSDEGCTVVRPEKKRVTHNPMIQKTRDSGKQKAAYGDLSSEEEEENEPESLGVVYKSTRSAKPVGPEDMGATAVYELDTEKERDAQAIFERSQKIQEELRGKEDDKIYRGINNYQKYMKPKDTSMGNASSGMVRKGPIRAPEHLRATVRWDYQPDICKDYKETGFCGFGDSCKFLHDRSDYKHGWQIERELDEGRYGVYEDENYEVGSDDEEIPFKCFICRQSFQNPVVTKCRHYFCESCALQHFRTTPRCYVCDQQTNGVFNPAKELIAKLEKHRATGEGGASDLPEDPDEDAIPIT
UniProt Q9BTD8: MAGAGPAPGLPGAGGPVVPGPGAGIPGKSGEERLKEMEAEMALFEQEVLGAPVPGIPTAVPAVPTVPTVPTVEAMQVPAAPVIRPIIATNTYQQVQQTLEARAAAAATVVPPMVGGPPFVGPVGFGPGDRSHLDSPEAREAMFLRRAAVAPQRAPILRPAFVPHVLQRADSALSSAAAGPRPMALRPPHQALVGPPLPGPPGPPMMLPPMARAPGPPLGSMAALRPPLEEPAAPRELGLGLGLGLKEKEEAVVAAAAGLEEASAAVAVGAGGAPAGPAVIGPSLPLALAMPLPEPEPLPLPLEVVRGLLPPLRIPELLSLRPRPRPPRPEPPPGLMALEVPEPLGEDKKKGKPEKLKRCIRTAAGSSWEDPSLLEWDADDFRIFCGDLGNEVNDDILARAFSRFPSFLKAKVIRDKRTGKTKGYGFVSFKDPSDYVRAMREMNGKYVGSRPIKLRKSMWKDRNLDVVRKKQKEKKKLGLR
UniProt Q9NPQ8: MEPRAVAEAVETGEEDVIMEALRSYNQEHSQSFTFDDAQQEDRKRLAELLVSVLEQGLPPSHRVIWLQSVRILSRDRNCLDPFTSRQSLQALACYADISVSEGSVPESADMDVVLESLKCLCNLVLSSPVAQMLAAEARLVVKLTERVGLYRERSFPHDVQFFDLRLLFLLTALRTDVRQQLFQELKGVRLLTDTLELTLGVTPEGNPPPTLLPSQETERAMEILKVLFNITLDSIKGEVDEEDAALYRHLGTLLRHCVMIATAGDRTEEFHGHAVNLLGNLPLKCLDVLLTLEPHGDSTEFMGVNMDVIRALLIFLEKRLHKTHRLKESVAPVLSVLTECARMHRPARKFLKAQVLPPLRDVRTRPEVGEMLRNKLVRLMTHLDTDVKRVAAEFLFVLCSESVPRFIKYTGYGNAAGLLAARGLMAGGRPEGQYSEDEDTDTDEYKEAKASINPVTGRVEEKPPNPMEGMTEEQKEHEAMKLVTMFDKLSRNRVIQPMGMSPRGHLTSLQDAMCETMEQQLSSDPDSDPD
UniProt Q9BWE0: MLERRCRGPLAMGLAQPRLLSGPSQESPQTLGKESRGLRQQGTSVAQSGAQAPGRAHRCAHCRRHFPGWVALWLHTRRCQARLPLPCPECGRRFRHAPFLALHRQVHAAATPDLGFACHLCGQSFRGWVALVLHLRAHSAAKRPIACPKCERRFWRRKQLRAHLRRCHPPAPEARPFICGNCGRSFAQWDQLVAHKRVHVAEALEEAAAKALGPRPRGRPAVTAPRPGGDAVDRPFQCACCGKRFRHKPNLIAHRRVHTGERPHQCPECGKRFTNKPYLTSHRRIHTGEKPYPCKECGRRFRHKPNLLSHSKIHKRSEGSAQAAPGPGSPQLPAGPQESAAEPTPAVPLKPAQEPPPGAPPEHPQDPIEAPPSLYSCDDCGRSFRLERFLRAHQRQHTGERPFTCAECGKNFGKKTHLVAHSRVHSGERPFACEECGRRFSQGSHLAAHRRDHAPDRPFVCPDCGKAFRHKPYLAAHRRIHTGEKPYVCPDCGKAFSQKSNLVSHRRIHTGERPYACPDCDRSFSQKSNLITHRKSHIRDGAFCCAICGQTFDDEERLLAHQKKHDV
UniProt Q9Y508: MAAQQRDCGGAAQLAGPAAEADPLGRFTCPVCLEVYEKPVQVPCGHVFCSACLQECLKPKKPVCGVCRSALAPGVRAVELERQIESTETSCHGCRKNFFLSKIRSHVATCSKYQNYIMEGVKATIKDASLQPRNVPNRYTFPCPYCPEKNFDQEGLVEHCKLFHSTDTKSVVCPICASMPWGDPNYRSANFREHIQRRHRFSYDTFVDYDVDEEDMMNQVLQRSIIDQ
UniProt O00584, whole entry, looked up: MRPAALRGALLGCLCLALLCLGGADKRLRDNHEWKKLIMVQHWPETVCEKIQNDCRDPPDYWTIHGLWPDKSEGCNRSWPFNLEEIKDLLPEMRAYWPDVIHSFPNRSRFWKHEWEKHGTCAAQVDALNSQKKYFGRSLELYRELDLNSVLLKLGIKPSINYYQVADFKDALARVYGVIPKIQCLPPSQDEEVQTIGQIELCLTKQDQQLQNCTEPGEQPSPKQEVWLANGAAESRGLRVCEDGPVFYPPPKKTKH
UniProt Q9NWS8: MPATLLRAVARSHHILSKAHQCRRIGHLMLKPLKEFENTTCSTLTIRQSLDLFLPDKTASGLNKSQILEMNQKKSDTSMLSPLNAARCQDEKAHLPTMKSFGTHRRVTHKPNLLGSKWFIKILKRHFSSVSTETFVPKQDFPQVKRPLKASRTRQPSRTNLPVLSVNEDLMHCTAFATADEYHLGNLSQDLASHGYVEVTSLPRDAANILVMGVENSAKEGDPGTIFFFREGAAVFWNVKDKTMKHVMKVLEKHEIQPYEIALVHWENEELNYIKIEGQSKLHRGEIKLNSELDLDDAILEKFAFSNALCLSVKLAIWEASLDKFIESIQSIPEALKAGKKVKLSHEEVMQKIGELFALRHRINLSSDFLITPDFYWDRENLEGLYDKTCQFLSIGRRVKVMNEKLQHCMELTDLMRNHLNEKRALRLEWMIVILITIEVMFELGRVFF

What was measured:
Assay in all cases: log2 fold change, soluble protein after heating vs DMSO (PISA); higher = thermal stabilisation; K562 cells, 10 uM, 30 min; active = over 0.2 and 3.5 SD of the protein, either way, in both replicates (recomputed)
erlotinib = compound: C#Cc1cccc(Nc2ncnc3cc(OCCOC)c(OCCOC)cc23)c1 [erlotinib]
How it was run: (§1)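 K562 cells at 2×10^6 cells/mL were treated for 30 min with 10 μM compound, and aliquots were heated for 3 min over 48°C-58°C before pooling. Extraction used PBS with 0.5% NP-40 at 4°C, and soluble protein was the supernatant after 21,000xg for 90 min, measured by TMTpro 16plex LC-MS/MS with channel sums equalised. Thermal stability values, relative to control samples and from duplicates, are log2 fold changes.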

[1] = compound: C/C(=N\NC(=O)C1=CC(=CC=C1)S(=O)(=O)N2CCOCC2)/C3=C(C=CC(=C3)Cl)O
How it was run: as §1

[2] = compound: C1=CC(=C(C=C1Cl)C2=NC3=NC=CN=C3C(=N2)NC4=CC=NC=C4)F
How it was run: as §1

[3] = compound: C1=CC(=CC=C1C2=NC3=C(N2)C=C(C=C3)C(=O)N)OC4=CC=C(C=C4)Cl
How it was run: as §1

[4] = compound: C1=CC2=C(C=CC(=C2)/C=C\3/C(=O)NC(=NCC4=CC=CS4)S3)N=C1
How it was run: as §1

[5] = compound: C1=CC2=NC=CN=C2C=C1/C=C/3\C(=O)NC(=O)S3
How it was run: as §1

[6] = compound: C1=CC=C(C=C1)C2=NC(=C(N2)C3=CC=NC=C3)C4=CC(=C(C=C4)Cl)O
How it was run: as §1

[7] = compound: C1=CC=C2C(=C1)C3=NNC4=CC=CC(=C43)C2=O
How it was run: as §1

[8] = compound: C1CCN(C1)C(=O)NC2=CC=CC(=C2)NC3=NC=C(C(=N3)NCCC4=CN=CN4)Br
How it was run: as §1

[9] = compound: C1CN(CCC1(CC2=CC=C(C=C2)Cl)N)C3=NC=NC4=C3C=CN4
How it was run: as §1

Target	log2 fold change (erlotinib)	log2 fold change [1]	log2 fold change [2]	log2 fold change [3]	log2 fold change [4]	log2 fold change [5]	log2 fold change [6]	log2 fold change [7]	log2 fold change [8]	log2 fold change [9]
RCHY1 (UniProt Q96PM5)	inactive: -0.045	inactive: 0.03	inactive: 0.047	inactive: 0.011	inactive: -0.002	inactive: 0.026	inactive: 0	inactive: -0.046	inactive: -0.064	inactive: 0.07
RGS14 (UniProt O43566)	inactive: 0.156	inactive: -0.423	inactive: -0.165	inactive: -0.14	inactive: 0.414	inactive: -0.114	inactive: -0.229	inactive: -0.042	inactive: 0.2	inactive: -0.085
RING1 (UniProt Q06587)	inactive: -0.004	inactive: -0.242	inactive: 0.094	inactive: 0.046	inactive: 0.068	inactive: -0.015	inactive: -0.072	inactive: 0.12	inactive: -0.033	inactive: 0.02
RBM48 isoform 2 (UniProt Q5RL73)	inactive: -0.048	inactive: 0.017	inactive: -0.065	inactive: -0.026	inactive: 0.053	inactive: 0.055	inactive: -0.144	inactive: 0.042	inactive: 0.118	inactive: -0.115
RFX1 (UniProt P22670)	inactive: -0.053	inactive: 0.05	inactive: 0.117	inactive: 0.01	inactive: -0.015	inactive: 0.042	inactive: -0.063	inactive: 0.03	inactive: -0.018	inactive: -0.03
RCN3 (UniProt Q96D15)	inactive: 0.033	inactive: 0.013	inactive: 0.058	inactive: 0.048	inactive: 0.03	inactive: -0.029	inactive: -0.057	inactive: -0.023	inactive: 0.07	inactive: -0.103
RNASEH2B (UniProt Q5TBB1)	inactive: 0.15	inactive: 0.094	inactive: 0.087	inactive: -0.044	inactive: 0.126	inactive: -0.008	inactive: 0.099	inactive: 0.053	inactive: -0.041	inactive: -0.024
RHOB (UniProt P62745)	inactive: -0.11	inactive: 0.018	inactive: 0.165	inactive: -0.006	inactive: -0.097	inactive: 0.006	inactive: 0.074	inactive: -0.102	inactive: -0.056	inactive: -0.022
RIDA (UniProt P52758)	inactive: -0.027	inactive: 0.04	inactive: 0.073	inactive: 0.002	inactive: 0.007	inactive: 0.042	inactive: 0.041	inactive: -0.049	inactive: -0.001	inactive: 0.046
RHOT1 isoform 3 (UniProt Q8IXI2)	inactive: 0.067	inactive: 0.038	inactive: 0.07	inactive: -0.014	inactive: 0.021	inactive: 0.007	inactive: 0.038	inactive: 0.003	inactive: -0.035	inactive: 0.034
RBPJ (UniProt Q06330)	inactive: -0.022	inactive: 0.005	inactive: 0.04	inactive: 0.042	inactive: -0.006	inactive: 0.025	inactive: -0.028	inactive: -0.025	inactive: 0.02	inactive: 0.063
RFXAP (UniProt O00287)	inactive: 0.05	inactive: 0.003	inactive: -0.006	inactive: 0.014	inactive: 0.055	inactive: 0.032	inactive: 0.017	inactive: -0.108	inactive: -0.052	inactive: 0.093
RMDN3 (UniProt Q96TC7)	inactive: -0.002	inactive: 0.054	inactive: -0.034	inactive: 0.016	inactive: 0.045	inactive: -0.077	inactive: 0.013	inactive: 0.01	inactive: -0.03	inactive: 0.012
RNF113A (UniProt O15541)	inactive: 0.008	inactive: 0.001	inactive: 0.041	inactive: 0.003	inactive: -0.023	inactive: 0.034	inactive: -0.056	inactive: 0.018	inactive: 0.016	inactive: 0.099
REPS1 (UniProt Q96D71)	inactive: -0.16	inactive: 0.089	inactive: -0.111	inactive: 0.002	inactive: 0.299	inactive: 0.078	inactive: -0.048	inactive: 0.059	inactive: 0.136	inactive: -0.155
RCN1 (UniProt Q15293)	inactive: -0.008	inactive: 0.025	inactive: 0	inactive: -0.009	inactive: -0.018	inactive: 0.046	inactive: -0.047	inactive: -0.037	inactive: 0.015	inactive: 0.017
RCE1 (UniProt Q9Y256)	inactive: 0.02	inactive: 0.036	inactive: 0.003	inactive: -0.057	inactive: 0.054	inactive: 0.081	inactive: 0.148	inactive: 0.03	inactive: -0.157	inactive: 0.149
RNF121 (UniProt Q9H920)	inactive: -0.01	inactive: 0.053	inactive: -0.011	inactive: 0.042	inactive: 0.005	inactive: 0.056	inactive: 0.067	inactive: -0.046	inactive: -0.053	inactive: 0.139
RBM42 (UniProt Q9BTD8)	inactive: -0.037	inactive: -0.049	inactive: -0.241	inactive: 0.054	inactive: -0.045	inactive: 0.012	inactive: 0.054	inactive: -0.004	inactive: -0.003	inactive: -0.112
RFX5 (UniProt P48382)	inactive: 0.047	inactive: 0.115	inactive: 0.294	inactive: 0.078	inactive: -0.119	inactive: 0.045	inactive: -0.052	inactive: -0.049	–	–
RIOK3 (UniProt O14730)	inactive: 0.037	inactive: 0.014	inactive: 0.062	inactive: 0.003	inactive: -0.019	inactive: 0.048	inactive: -0.033	inactive: 0.02	inactive: 0.024	inactive: -0.025
RIOK2 (UniProt Q9BVS4)	inactive: -0.081	inactive: -0.064	inactive: -0.149	inactive: 0.097	inactive: -0.043	inactive: -0.055	inactive: -0.01	inactive: 0.055	inactive: 0.035	inactive: -0.209
RCOR1 (UniProt Q9UKL0)	inactive: 0.033	inactive: 0.069	inactive: -0.043	inactive: -0.056	inactive: 0.134	inactive: -0.013	inactive: 0.076	inactive: -0.011	inactive: -0.006	inactive: -0.043
RIC8A isoform 3 (UniProt Q9NPQ8)	inactive: 0.063	inactive: 0.114	inactive: 0	inactive: -0.031	inactive: 0.114	inactive: -0.052	inactive: 0.005	inactive: -0.021	inactive: -0.071	inactive: -0.057
REPIN1 isoform 4 (UniProt Q9BWE0)	inactive: 0.081	inactive: -0.017	inactive: 0.035	inactive: -0.009	inactive: -0.027	inactive: 0.003	inactive: 0.02	inactive: -0.012	inactive: -0.04	inactive: 0.014
RBM38 (UniProt Q9H0Z9)	inactive: -0.026	inactive: 0.091	inactive: 0.094	inactive: -0.019	inactive: 0.118	inactive: 0.138	inactive: 0.061	inactive: -0.076	inactive: -0.079	inactive: 0.065
RETSAT (UniProt Q6NUM9)	inactive: 0.044	inactive: -0.149	inactive: 0.132	active: 0.502	inactive: 0.052	inactive: 0.002	inactive: 0.056	inactive: 0.144	inactive: -0.126	inactive: 0.194
RNF114 (UniProt Q9Y508)	inactive: 0.02	inactive: 0.036	inactive: 0.048	inactive: -0.048	inactive: -0.001	inactive: 0.019	inactive: 0.005	inactive: -0.03	inactive: -0.014	inactive: 0.025
RNASET2 (UniProt O00584)	inactive: 0.027	inactive: -0.007	inactive: -0.006	inactive: 0.002	inactive: 0.012	inactive: -0.014	inactive: -0.001	inactive: -0.027	inactive: 0.034	inactive: 0.052
RMND1 (UniProt Q9NWS8)	inactive: 0.029	inactive: 0.117	inactive: 0.036	inactive: 0.008	inactive: 0.026	inactive: 0	inactive: -0.023	inactive: -0.041	inactive: 0.026	inactive: 0.009

Single records, as listed above. Order of values: log2 fold change (erlotinib)	log2 fold change [1]	log2 fold change [2]	log2 fold change [3]	log2 fold change [4]	log2 fold change [5]	log2 fold change [6]	log2 fold change [7]	log2 fold change [8]	log2 fold change [9]
RFX5 (UniProt P48382) as listed: inactive: 0.047	inactive: 0.115	inactive: 0.294	inactive: 0.078	inactive: -0.119	inactive: 0.045	inactive: -0.052	inactive: -0.049	–	–
RCHY1 (UniProt Q96PM5) as listed: inactive: -0.045	inactive: 0.03	inactive: 0.047	inactive: 0.011	inactive: -0.002	inactive: 0.026	inactive: 0	inactive: -0.046	inactive: -0.064	inactive: 0.07
